Laboratory results taken from the supplement of paper PMC12595434, “Development of retinoid nuclear receptor pathway antagonists through targeting aldehyde dehydrogenase 1A3” (iScience, 2025).
This is one part of the list. The data scatter; read single values as rough.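 Many melting curves are irregular; where none melted, Tm was taken as 64 °C.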

Sequences of proteins named here, by UniProt entry; tags and fusion partners are left off. A change or cut given only in a name is not applied to a line headed by its entry.
UniProt Q5T2E6: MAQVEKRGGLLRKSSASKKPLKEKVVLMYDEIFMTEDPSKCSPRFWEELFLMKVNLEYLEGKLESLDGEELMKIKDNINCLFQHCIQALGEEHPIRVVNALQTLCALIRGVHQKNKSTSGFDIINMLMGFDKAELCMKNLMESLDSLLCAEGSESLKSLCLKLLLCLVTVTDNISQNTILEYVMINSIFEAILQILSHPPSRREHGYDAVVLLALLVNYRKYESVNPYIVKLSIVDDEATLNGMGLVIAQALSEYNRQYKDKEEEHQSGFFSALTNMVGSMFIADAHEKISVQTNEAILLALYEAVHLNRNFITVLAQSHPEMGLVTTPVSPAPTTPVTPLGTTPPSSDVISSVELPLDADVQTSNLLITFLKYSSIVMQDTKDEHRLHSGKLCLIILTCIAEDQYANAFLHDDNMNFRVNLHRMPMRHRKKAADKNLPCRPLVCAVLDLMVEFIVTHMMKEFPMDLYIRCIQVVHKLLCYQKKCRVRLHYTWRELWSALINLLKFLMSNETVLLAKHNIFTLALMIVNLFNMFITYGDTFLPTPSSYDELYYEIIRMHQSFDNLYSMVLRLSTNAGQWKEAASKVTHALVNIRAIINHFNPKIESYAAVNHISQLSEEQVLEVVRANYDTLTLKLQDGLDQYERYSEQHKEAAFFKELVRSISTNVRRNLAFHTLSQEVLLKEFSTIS
UniProt Q68CZ1: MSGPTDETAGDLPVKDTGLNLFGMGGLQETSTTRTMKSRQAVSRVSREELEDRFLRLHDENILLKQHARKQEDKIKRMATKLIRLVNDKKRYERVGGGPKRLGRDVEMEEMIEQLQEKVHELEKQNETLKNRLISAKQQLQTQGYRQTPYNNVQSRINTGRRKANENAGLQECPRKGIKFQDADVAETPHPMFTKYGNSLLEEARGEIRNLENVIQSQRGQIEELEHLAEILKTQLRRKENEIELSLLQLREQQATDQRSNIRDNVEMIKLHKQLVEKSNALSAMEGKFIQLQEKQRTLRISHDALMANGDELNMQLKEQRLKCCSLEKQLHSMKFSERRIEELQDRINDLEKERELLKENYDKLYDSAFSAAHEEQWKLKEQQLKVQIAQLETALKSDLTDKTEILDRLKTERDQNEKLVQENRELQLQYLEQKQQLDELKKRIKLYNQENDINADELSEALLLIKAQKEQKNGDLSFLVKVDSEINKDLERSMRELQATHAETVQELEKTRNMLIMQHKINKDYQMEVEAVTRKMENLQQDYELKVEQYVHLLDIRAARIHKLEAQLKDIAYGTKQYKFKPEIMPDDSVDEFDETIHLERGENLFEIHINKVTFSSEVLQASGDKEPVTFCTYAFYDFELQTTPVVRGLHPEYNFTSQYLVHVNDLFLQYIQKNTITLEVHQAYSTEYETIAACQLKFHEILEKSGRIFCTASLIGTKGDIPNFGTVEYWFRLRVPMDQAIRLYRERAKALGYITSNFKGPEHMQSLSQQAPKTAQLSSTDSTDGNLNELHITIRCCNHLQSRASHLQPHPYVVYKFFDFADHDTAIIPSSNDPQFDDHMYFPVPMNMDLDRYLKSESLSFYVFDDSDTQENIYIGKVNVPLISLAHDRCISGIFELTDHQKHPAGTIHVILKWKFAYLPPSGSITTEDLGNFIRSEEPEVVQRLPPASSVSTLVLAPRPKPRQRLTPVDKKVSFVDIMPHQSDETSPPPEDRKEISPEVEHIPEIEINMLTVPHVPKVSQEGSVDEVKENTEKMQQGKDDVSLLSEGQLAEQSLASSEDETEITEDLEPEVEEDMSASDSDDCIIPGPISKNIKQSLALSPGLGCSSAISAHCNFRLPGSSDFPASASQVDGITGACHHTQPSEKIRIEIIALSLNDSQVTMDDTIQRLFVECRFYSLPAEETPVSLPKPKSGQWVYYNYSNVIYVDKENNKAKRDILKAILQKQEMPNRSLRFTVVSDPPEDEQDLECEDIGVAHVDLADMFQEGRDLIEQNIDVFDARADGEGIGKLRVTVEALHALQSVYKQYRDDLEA
UniProt Q6NS38: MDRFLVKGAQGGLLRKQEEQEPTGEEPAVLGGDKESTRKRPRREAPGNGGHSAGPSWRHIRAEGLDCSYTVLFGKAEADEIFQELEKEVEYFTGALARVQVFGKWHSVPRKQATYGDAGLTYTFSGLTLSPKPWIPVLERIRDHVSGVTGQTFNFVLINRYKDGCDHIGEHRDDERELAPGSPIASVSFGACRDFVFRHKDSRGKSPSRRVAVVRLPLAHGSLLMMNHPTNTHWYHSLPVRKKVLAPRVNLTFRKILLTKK
UniProt Q5HYK3: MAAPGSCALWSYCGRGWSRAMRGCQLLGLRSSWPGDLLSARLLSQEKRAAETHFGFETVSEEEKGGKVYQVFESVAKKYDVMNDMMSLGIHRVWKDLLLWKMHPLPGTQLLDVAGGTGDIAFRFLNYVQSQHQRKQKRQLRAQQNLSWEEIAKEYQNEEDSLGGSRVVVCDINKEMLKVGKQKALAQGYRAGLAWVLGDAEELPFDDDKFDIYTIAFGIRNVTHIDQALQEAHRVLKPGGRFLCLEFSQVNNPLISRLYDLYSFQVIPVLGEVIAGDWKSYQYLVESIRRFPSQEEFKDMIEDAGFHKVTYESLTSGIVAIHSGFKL
UniProt Q5HYI8: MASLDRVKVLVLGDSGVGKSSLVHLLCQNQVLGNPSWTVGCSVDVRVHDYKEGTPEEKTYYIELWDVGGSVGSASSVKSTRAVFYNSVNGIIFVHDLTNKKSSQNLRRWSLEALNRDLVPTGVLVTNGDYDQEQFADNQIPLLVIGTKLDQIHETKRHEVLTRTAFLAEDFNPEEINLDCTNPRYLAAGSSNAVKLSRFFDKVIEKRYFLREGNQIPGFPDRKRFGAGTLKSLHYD
UniProt Q5T440: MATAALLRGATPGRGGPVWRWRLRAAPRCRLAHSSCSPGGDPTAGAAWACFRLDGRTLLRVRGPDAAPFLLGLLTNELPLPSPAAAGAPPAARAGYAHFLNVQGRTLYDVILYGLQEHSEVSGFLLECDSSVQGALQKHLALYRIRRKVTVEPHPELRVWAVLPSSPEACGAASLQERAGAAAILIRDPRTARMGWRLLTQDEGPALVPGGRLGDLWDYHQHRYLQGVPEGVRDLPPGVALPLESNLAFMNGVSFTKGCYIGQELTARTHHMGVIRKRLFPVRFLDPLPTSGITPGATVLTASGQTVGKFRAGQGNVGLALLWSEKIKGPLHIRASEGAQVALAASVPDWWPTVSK
UniProt Q5VWQ8: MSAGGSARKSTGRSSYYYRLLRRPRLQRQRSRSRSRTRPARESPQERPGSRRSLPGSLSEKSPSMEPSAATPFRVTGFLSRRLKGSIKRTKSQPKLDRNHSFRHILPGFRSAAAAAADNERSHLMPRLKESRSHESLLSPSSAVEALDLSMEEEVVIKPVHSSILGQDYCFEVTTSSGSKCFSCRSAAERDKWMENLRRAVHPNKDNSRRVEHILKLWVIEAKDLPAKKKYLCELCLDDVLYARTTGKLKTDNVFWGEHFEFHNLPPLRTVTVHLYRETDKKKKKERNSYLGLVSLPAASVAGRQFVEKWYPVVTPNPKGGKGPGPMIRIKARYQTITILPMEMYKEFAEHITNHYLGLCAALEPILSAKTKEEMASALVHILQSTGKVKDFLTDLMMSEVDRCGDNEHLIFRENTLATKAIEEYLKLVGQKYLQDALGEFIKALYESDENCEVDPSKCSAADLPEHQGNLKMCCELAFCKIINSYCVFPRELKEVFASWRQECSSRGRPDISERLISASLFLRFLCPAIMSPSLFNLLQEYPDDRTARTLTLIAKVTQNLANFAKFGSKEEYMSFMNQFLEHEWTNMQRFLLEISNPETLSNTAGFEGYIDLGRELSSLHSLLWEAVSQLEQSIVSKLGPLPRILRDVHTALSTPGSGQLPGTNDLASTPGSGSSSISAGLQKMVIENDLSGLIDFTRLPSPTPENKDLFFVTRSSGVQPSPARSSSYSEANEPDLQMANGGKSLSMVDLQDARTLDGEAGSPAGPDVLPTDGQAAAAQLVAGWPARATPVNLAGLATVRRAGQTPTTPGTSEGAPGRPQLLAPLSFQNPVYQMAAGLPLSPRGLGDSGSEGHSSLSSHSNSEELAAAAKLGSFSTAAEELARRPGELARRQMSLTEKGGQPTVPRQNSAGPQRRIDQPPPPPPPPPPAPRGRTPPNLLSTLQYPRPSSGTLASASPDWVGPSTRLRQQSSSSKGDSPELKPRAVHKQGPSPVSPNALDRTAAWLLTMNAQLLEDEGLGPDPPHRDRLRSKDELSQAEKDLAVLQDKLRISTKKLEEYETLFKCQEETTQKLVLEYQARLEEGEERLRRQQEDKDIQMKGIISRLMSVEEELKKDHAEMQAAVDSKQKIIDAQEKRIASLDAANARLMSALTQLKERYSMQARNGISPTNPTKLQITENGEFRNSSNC
UniProt Q6P3S6: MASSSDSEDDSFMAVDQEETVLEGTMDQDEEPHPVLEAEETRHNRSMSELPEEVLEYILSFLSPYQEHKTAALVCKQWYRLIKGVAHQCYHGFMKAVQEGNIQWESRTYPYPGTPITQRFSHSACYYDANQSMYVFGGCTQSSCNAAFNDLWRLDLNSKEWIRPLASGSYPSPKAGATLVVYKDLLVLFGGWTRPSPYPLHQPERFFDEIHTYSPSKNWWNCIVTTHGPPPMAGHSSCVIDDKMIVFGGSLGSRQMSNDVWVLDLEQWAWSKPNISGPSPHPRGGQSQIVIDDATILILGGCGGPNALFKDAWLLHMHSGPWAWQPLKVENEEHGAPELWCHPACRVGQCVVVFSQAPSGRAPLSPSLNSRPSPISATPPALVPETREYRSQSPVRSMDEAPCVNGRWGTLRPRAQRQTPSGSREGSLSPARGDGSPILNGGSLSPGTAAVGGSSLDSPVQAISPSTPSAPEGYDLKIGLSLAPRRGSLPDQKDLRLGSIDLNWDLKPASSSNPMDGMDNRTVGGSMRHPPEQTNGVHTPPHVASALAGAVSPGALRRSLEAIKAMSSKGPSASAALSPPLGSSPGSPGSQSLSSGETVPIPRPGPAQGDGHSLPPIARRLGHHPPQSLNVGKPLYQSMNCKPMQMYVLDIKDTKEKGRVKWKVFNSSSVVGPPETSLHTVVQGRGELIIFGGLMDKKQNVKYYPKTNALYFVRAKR
UniProt Q5VYS8: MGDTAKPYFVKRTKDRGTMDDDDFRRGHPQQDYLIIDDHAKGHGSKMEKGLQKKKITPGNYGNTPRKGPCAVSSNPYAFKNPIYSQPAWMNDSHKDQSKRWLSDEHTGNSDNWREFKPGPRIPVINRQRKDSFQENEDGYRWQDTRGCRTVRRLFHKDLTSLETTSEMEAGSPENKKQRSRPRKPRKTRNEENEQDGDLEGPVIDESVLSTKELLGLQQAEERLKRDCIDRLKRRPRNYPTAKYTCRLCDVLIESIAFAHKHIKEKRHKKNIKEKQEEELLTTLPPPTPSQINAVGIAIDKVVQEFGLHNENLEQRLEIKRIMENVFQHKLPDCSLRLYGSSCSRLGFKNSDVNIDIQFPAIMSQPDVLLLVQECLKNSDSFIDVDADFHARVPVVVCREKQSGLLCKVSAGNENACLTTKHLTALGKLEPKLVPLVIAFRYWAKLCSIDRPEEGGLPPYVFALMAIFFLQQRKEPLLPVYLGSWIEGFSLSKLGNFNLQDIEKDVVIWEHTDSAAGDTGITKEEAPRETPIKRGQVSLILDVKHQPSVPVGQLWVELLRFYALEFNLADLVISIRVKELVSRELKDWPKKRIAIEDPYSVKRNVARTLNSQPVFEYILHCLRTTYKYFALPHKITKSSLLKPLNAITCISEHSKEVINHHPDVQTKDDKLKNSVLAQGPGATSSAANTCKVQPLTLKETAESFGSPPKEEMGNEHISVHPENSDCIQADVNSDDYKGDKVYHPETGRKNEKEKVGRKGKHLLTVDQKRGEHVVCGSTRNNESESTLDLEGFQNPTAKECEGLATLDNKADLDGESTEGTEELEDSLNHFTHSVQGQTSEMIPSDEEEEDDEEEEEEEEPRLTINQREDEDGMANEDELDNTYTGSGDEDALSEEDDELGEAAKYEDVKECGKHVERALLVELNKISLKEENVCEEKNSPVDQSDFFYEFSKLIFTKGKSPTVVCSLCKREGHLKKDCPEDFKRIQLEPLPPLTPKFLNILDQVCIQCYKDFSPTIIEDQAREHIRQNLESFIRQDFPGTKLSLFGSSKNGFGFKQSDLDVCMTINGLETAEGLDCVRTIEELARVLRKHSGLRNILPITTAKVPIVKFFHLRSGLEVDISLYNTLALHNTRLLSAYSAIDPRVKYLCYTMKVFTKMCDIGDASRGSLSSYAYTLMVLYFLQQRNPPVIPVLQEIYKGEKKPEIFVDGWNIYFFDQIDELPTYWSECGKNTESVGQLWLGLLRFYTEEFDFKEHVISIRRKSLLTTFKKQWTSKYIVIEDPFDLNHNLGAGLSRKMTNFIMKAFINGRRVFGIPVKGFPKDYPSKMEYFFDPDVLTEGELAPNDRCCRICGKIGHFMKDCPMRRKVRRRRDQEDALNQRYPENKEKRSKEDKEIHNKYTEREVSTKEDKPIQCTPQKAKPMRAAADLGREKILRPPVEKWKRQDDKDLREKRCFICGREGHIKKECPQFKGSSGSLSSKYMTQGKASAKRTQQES

compound: CCc1cnccc1C(=O)Nc1cc2c(cc1F)NC(=O)CC2; assay: melting temperature shift (DMSO Tm minus MBE1-treated Tm) in cellular thermal proteome profiling; higher = less thermal stabilization by MBE1 (negative = stabilized by MBE1); settings: A375; MBE1 concentration: 100 nM

Row | Target | melting temperature shift [°C]
1 | UniProt Q6NSZ9 | 0.349
2 | PPP6R3 (UniProt Q5H9R7) | -0.892
3 | RALGAPA1 (UniProt Q6GYQ0) | -1.07
4 | LPCAT4 (UniProt Q643R3) | -0.649
5 | UniProt Q5TZA2 | -0.055
6 | DCAF15 (UniProt Q66K64) | -0.189

same assay, conditions: A375; MBE1 concentration: 1 uM

Row | Target | melting temperature shift [°C]
7 | UniProt Q5T7W0 | -0.305
8 | C10ORF76 (UniProt Q5T2E6) | -0.543
9 | WDR73 (UniProt Q6P4I2) | 0.483
10 | UniProt Q68CZ1 | -0.556
11 | ARMC6 (UniProt Q6NXE6) | 0
12 | CDKAL1 (UniProt Q5VV42) | 0.287
13 | SLC25A24 (UniProt Q6NUK1) | -1.31
14 | MAP1S (UniProt Q66K74) | -0.11
15 | UniProt Q6NSI4 | 4.7
16 | STRIP1 (UniProt Q5VSL9) | 1.15
17 | SMYD5 (UniProt Q6GMV2) | 0.367
18 | SPECC1 (UniProt Q5M775) | -0.885
19 | RAB12 (UniProt Q6IQ22) | 1.35
20 | THOC7 (UniProt Q6I9Y2) | -0.147
21 | TTI2 (UniProt Q6NXR4) | -0.0244
22 | ALKBH2 (UniProt Q6NS38) | -0.0733
23 | CEP78 (UniProt Q5JTW2) | -1.84
24 | HIBCH (UniProt Q6NVY1) | 0.122
25 | COQ5 (UniProt Q5HYK3) | -0.159

Row | Target | melting temperature shift [°C]
26 | UniProt Q6F5E8 | -2.47
27 | RABL3 (UniProt Q5HYI8) | 0.583
28 | DUS1L (UniProt Q6P1R4) | 0.288
29 | NIPBL (UniProt Q6KC79) | -0.647
30 | FNBP1L (UniProt Q5T0N5) | 0.134
31 | ARID2 (UniProt Q68CP9) | -0.641
32 | UniProt Q68CP4 | -4.84
33 | IBA57 (UniProt Q5T440) | 0.226
34 | DAB2IP (UniProt Q5VWQ8) | -0.999
35 | UniProt Q5T2N8 | -0.287
36 | UniProt Q6P1R3 | 0.429
37 | UniProt Q6P3S6 | 0.288
38 | ZCCHC6 (UniProt Q5VYS8) | -1.08
39 | UniProt Q6NSZ9 | 0.318
40 | PPP6R3 (UniProt Q5H9R7) | 0.74
41 | RALGAPA1 (UniProt Q6GYQ0) | -0.501
42 | LPCAT4 (UniProt Q643R3) | -0.527
43 | UniProt Q5TZA2 | 1.11
44 | DCAF15 (UniProt Q66K64) | 0.586
